Source: the supplement of paper PMC12889115
The list shows a part of the results. Values are raw readings; no control value is given beside them.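 Primary screen: polymyxin B was added at a level permeabilizing Salmonella outer membranes while sparing inner membranes. DMSO wells, both with and without polymyxin B, established maximum growth. Plate-to-plate variation meant each plate was ranked on its own, and the lowest-OD600 compounds were selected as hits.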

System: Salmonella enterica serovar Typhimurium SL1344
Test: bacterial growth OD600 after 18 h with compound and polymyxin B; higher = more bacterial growth (less inhibition)
Conditions: 50 µM, Mueller-Hinton broth

Row | SMILES | bacterial growth OD600 (polymyxin B 0.75 µg/mL) | bacterial growth OD600 (polymyxin B 1 µg/mL)
1 | c1ccc(-c2noc3c2CN(Cc2cccn2-c2ccccn2)CC3)cc1 | 0.709 | –
2 | CN1CCCC(CN(CCc2ccccc2)C(=O)c2cccc(Cl)c2)C1 (configuration not stated) | – | 0.775
3 | COc1ccc(F)c(CN2CCCC(c3nc(-c4ccncc4)ncc3-c3ccccc3C)C2)c1 (configuration not stated) | 0.401 | –
4 | Cc1ccc(CCNC2CCCN(c3nc(C)c4ccc(S(C)(=O)=O)cc4n3)CC2)cc1 (configuration not stated) | 0.856 | –
5 | COCCC(=O)N1CCC(Oc2ccc(C(=O)N[C@H](C(=O)OC)C(C)C)cc2)CC1 | – | 0.894
6 | Cn1cc(CN2CCCC(CNC(=O)c3cccs3)C2)c(-c2ccccc2)n1 (configuration not stated) | – | 0.941
7 | Cc1cc(F)ccc1NC(=O)CCC1CCCN(C(=O)Cc2ccc3c(c2)OCO3)C1 (configuration not stated) | – | 0.869
8 | CCC(NC(=O)c1cc(COc2ccc3ncccc3c2)on1)c1ccncc1 (configuration not stated) | – | 1.02
9 | CCCn1c(C)c(CC(=O)N[C@@H](C)C(N)=O)c2c1CC(C)(C)CC2=O | – | 0.866
10 | O=C(N1CCOC(Cc2ccccc2)C1)C12CC3CC(CC(C3)C1)C2 (configuration not stated) | 0.025 | –
11 | COc1ccccc1C(=O)N[C@@H]1c2ccccc2C2(CCN(C(=O)Cc3ccsc3)CC2)[C@H]1OC | 0.528 | –
12 | O=C(Nc1cccc(N2CCNC2=O)c1)C1CC12CCN(C(=O)/C=C/c1cc(F)ccc1F)CC2 (configuration not stated) | 0.832 | –
13 | O=C(NC1CC(=O)N(CCc2cccc(Cl)c2)C1)C1CCCC1 (configuration not stated) | – | 0.8
14 | O=C(NC1CC(=O)N(Cc2ccccc2C(F)(F)F)C1)c1ccccn1 (configuration not stated) | – | 0.909
15 | CCN(CC1CCCN(CCc2cccc(F)c2)C1)C(=O)CCc1ccccn1 (configuration not stated) | – | 1.03
16 | CC(C)N1CCC(C(=O)N2CCCC(CCc3ccc(F)c(F)c3)C2)CC1 (configuration not stated) | 0.001 | –

Row | SMILES | bacterial growth OD600 (polymyxin B 0.75 µg/mL) | bacterial growth OD600 (polymyxin B 1 µg/mL)
17 | CCc1ccc(CN(C)C(=O)C2CCC(=O)N(CCN3CCOCC3)C2)nc1 (configuration not stated) | – | 0.948
18 | COc1cccc(CN2CCN(Cc3ccccc3OC)CC2CCO)c1 (configuration not stated) | – | 0.886
19 | CCOC(=O)CC1CCCCN1Cc1nc(-c2cc(OC)ccc2F)oc1C (configuration not stated) | – | 0.686
20 | O=C(NC1CC(=O)N(Cc2cccc3ccccc23)C1)c1ccoc1 (configuration not stated) | – | 0.891
21 | COc1ccc(CCCNC(=O)c2ccc(N3CCCC(O)C3)nc2)cc1 (configuration not stated) | – | 0.978
22 | CC1CCN(Cc2nnnn2CC(=O)NCc2scnc2-c2ccccc2)CC1 | – | 0.912
23 | Cc1nc(CNC(=O)Cn2nnnc2CN2CCC(C)CC2)sc1C | 0.704 | –
24 | Cn1ccnc1CNC(=O)c1csc2nc(-c3ccccc3Cl)cn12 | – | 1.14
25 | CC(C)CCCC1CN(S(=O)(=O)N2CCOCC2)CCO1 (configuration not stated) | 0.785 | –
26 | COc1cccc(CCC2CCCN(C(=O)c3ccc(C)nc3)C2)c1 (configuration not stated) | 0.689 | –
27 | COCCN1CC(CNc2nncc(-c3ccc(Cl)cc3)n2)CC1=O (configuration not stated) | – | 0.919
28 | C[C@@H]1CN(Cc2nc(NCc3cccs3)c3ccccc3n2)C[C@H](C)O1 | 0.756 | –
29 | COc1cccc(CN2CCCC3(CCN(C(=O)CC(C)C)C3)C2=O)c1OC (configuration not stated) | – | 0.901
30 | COc1ccc(F)c(CC2(CCC(=O)N(C)CC(O)c3ccccc3)CCC(=O)N2)c1 (configuration not stated) | 0.881 | –
31 | COc1ccc(OC2CCN(Cc3nc(-c4ccccn4)no3)CC2)cc1 | – | 0.89
32 | Cn1cc(CNc2ccc(C(=O)N3CCC(CCn4cccn4)CC3)cn2)cn1 | 0.803 | –

A draw from above in order of heavy-atom count, falling.
Row | SMILES | bacterial growth OD600 (polymyxin B 0.75 µg/mL) | bacterial growth OD600 (polymyxin B 1 µg/mL)
22 | CC1CCN(Cc2nnnn2CC(=O)NCc2scnc2-c2ccccc2)CC1 | – | 0.912
31 | COc1ccc(OC2CCN(Cc3nc(-c4ccccn4)no3)CC2)cc1 | – | 0.89
27 | COCCN1CC(CNc2nncc(-c3ccc(Cl)cc3)n2)CC1=O (configuration not stated) | – | 0.919
